We go through 42 sequences from article PMC7819943, “Rice protein-binding microarrays: a tool to detect cis-acting elements near promoter regions in rice”.

Chains of the proteins cited; added tags and fusions are not shown.
UniProt Q0JBA9, entry or part of it: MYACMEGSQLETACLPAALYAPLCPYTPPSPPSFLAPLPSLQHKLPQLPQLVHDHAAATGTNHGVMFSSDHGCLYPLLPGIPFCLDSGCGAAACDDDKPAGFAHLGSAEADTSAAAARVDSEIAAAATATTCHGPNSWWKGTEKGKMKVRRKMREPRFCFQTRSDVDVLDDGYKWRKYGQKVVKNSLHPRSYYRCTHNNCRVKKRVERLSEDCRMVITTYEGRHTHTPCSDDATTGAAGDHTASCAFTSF

The list shows a part of the results.

This assay addresses OsWRKY34 (Oryza sativa, UniProt Q0JBA9 1-250). Kind of assay: protein-binding microarray (RPBM); PBS, 2% BSA, 51.3 ng/ul salmon testes DNA, 50 uM zinc acetate, 200 nM TF, 25 C, 1 h; high values mean tight binding. The conditions noted are these: protein: recombinant; tags: N-terminal polyhistidine and DsRed monomer fusion (pET32a); label: CyDye5-dUTP incorporated in the synthesized complementary strand; 3' TTTTT single-stranded linker to array surface; dsDNA, one strand shown. The essentials: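 Ni–NTA purification followed expression in E. coli BL21-CodonPlus of transcription factors fused N-terminally to a polyhistidine tag and DsRed. At 200 nM in PBS with 2% BSA, salmon testes DNA and 50 µM zinc acetate, the protein was incubated for 1 h at 25 °C with a custom Agilent array that had been primer-extended with Cy5-dUTP and blocked with 2% BSA. After washing, the array was read on an Axon 4000B scanner. The binding signal is per-feature fluorescence intensity in arbitrary units.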
Turning to “TCACGCGCTAATGGATCGCTCCGTTTTCCATGCTACTGTTCGGAGTCACCTAGTGCAG”, the binding signal was 9860 fluorescence intensity (a.u.). As for “GCGCCGACTCACTCCACCACCTCATCTCATCAGCTGCCTCCGGAGTCACCTAGTGCAG”, the figure is 10600 fluorescence intensity (a.u.); as for “GGAGGTAGGTGTGTGCCTGTGCGCTGCGTCTTTTGACCAACGGAGTCACCTAGTGCAG”, 9710 fluorescence intensity (a.u.); as for “GCGACCTTGCCTCTGCTTCACATTGCCATAGCCGTTTCCTCGGAGTCACCTAGTGCAG”, 14100 fluorescence intensity (a.u.). Regarding “AGTTTAACTTTTTTTAGGGCGGAGGGAGTATATATGGGGCCGGAGTCACCTAGTGCAG”, the binding signal was 10600 fluorescence intensity (a.u.).

With “TTTGGAACATTAATGATAGGGGTGAGTAGACTAATTTTTCCGGAGTCACCTAGTGCAG”, the binding signal was 8680 fluorescence intensity (a.u.). As for “ACCATCCCTGCTGACTCCAAGTCTATGTATTGTGTTTCTCCGGAGTCACCTAGTGCAG”, the figure is 9760 fluorescence intensity (a.u.); as for “GCGGAGCTCCTTGGCTTCTCGGTTCCACTTGAAACGCTCGCGGAGTCACCTAGTGCAG”, 8190 fluorescence intensity (a.u.). As for “TAGCATAGTGTCAAGTCAAACATTTTTAACTTTGACTATTCGGAGTCACCTAGTGCAG”, the figure is 15800 fluorescence intensity (a.u.); as for “ATCCATGCATCCATCCATCATTTAACCACGTAGCATGTATCGGAGTCACCTAGTGCAG”, 8590 fluorescence intensity (a.u.).

As to “AGTCGGAAGGCCACCACATCTGCATGCCATTCTCGTCATTCGGAGTCACCTAGTGCAG”, the binding signal is 9110 fluorescence intensity (a.u.).

Consider “TTGTGCCGAAGAACTCCTACATGCGCTCGCCCGTCGGCCACGGAGTCACCTAGTGCAG”, for which the binding signal is 8050 fluorescence intensity (a.u.). As for “ACTATTGTCATATTTTTTTTTATTGCTCTACATATGAAATCGGAGTCACCTAGTGCAG”, the figure is 8780 fluorescence intensity (a.u.). The value for “GCTGCAGTTGTGTATAGTAGGAGAAGCTGATTTCTATATCCGGAGTCACCTAGTGCAG” was 9070 fluorescence intensity (a.u.). Consider “CATGTAAACTTCTAACTTTTTCATCACATCATTCCAATTTCGGAGTCACCTAGTGCAG”, for which the binding signal is 10400 fluorescence intensity (a.u.). “CAGTATAGATCATATTTTCCCGGTTTTTGCTGGCGTGGCACGGAGTCACCTAGTGCAG”: the binding signal was 9280 fluorescence intensity (a.u.).

In the case of “GCCGAGCGCCGCCACCACGCCACCGACCACCGCCACGCGCCGGAGTCACCTAGTGCAG”, the binding signal is 9020 fluorescence intensity (a.u.). The value for “GTCAGTCTACATCAGTAGAGCAACTCTTGGTTCGTTTTTACGGAGTCACCTAGTGCAG” was 8670 fluorescence intensity (a.u.).

With “ATGGTGGTTGTTACTGTCGTCCGTGTGTCTAGCTTGCCAACGGAGTCACCTAGTGCAG”, the binding signal was 9870 fluorescence intensity (a.u.).

In the case of “AAAGTAGGAAGTCGGTGGTAGGAGTGTTGACATGCAGGGTCGGAGTCACCTAGTGCAG”, the binding signal was 10500 fluorescence intensity (a.u.).

As to “TATACCTGCTTCATCTGAACGTATATACGTCCGGTTCCTACGGAGTCACCTAGTGCAG”, the binding signal was 8410 fluorescence intensity (a.u.). On to “GTTGATATTGTTGTTTTTCTTCGTAGCTTATTTTCCAGCGCGGAGTCACCTAGTGCAG”, for which the binding signal is 8620 fluorescence intensity (a.u.). As for “TAGCTAGCTCTTGTACAGGTTTCCTCACCTGCTGTATCGACGGAGTCACCTAGTGCAG”, the figure is 8060 fluorescence intensity (a.u.); as for “AATTTTTGTGTGTCCCAGGGCAAATTTTGCCTTATATTTTCGGAGTCACCTAGTGCAG”, 8390 fluorescence intensity (a.u.). Consider “CTCTACTTCTAATGTTCCTTATTTTTTTTCCGAGTTTCTACGGAGTCACCTAGTGCAG”, for which the binding signal was 9390 fluorescence intensity (a.u.). As for “CCTGAATTCCCTCGTCTAGATCTCACACGTCACAAGTCTCCGGAGTCACCTAGTGCAG”, the figure is 9360 fluorescence intensity (a.u.); as for “GTCCCCGTCCAGGCGCAGCTCCCCGGCGTCCTCGTCTCCGCGGAGTCACCTAGTGCAG”, 8380 fluorescence intensity (a.u.). As for “TTGCGGACATCAGTATCGTACGTGTCATTTTTTTTTGCAACGGAGTCACCTAGTGCAG”, the figure is 9070 fluorescence intensity (a.u.). The value for “CTACATATCTGTAACCCGCTGCTCTTCTCTCTCTTCTTTTCGGAGTCACCTAGTGCAG” was 8200 fluorescence intensity (a.u.); that for “TGGTCGAGCTGCATCTTGGTTACGTTCTTCGCGAGCTCATCGGAGTCACCTAGTGCAG” was 10900 fluorescence intensity (a.u.); that for “CCACTCACATGTATGCACACACATCCCAAATTCCCAATTTCGGAGTCACCTAGTGCAG” was 8520 fluorescence intensity (a.u.).

Take “GCATTCTGTTTTTTTGTTCGGCCTGCATTCATTTCCCTAACGGAGTCACCTAGTGCAG”: the binding signal was 15200 fluorescence intensity (a.u.).

In the case of “CCGCCCCGTTTTCACCCTAGTCACAGTCTTCTCGCCCCATCGGAGTCACCTAGTGCAG”, the binding signal was 8970 fluorescence intensity (a.u.). As for “ACGGCACGGCACGCTCTCCACCCCGCACGCTGCACGCATTCGGAGTCACCTAGTGCAG”, the figure is 9290 fluorescence intensity (a.u.); as for “CGCATTTTGTGCAATTTATACTGTGTTCTGTATGCATCAACGGAGTCACCTAGTGCAG”, 8060 fluorescence intensity (a.u.); as for “TCCTCTCTCTCTTCTTGTCATCCTCCTCATCTCTTCTTCCCGGAGTCACCTAGTGCAG”, 11300 fluorescence intensity (a.u.). As for “ACATCGGCATCGATTACAGCTTCGACTTCCTCGTCTCGTTCGGAGTCACCTAGTGCAG”, the figure is 8940 fluorescence intensity (a.u.).

As for “ACTGATATTTTTCTTTTCCAATCATAATTGTGCAAGTATTCGGAGTCACCTAGTGCAG”, the binding signal is 8220 fluorescence intensity (a.u.). The value for “AACGGACGCGAAATCCTCTTCGGTTTTTGTATACTCATCCCGGAGTCACCTAGTGCAG” was 9230 fluorescence intensity (a.u.); that for “ACTACTCTTAACTCTTTGCTAAATGCTGCTTTCGCAAATGCGGAGTCACCTAGTGCAG” was 8330 fluorescence intensity (a.u.). The value for “TTCACTCTAGTACTCTGCTTGCTTCTCCGCATCCATCAACCGGAGTCACCTAGTGCAG” was 9540 fluorescence intensity (a.u.); that for “GTTGGGATATCTTCATTTCATTCATTGTTGTGTGGTGCGACGGAGTCACCTAGTGCAG” was 8140 fluorescence intensity (a.u.).
